Common to all, as to assay: co-IP
The target of test [1] is T1, Myc-MED8 (Mediator 8) (Arabidopsis thaliana) (UniProt Q4V3C1).
T1 sequence: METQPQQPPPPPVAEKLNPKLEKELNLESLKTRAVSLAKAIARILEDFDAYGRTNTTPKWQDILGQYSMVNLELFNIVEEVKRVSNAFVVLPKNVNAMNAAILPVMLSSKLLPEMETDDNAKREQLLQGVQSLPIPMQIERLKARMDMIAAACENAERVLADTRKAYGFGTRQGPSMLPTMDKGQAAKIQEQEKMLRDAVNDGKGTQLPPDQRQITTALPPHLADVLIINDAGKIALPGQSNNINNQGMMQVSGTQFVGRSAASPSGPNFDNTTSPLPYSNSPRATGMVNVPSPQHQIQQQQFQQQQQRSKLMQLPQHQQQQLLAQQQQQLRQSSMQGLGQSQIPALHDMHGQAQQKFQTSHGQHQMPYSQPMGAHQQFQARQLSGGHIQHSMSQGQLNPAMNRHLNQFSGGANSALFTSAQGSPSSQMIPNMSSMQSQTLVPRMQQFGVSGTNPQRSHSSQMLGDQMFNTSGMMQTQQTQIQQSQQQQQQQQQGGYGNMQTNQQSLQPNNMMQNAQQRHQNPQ

Test [2] concerns the target T2, HA-IAA9^P188S (Arabidopsis thaliana) (UniProt Q38827).
T2 sequence: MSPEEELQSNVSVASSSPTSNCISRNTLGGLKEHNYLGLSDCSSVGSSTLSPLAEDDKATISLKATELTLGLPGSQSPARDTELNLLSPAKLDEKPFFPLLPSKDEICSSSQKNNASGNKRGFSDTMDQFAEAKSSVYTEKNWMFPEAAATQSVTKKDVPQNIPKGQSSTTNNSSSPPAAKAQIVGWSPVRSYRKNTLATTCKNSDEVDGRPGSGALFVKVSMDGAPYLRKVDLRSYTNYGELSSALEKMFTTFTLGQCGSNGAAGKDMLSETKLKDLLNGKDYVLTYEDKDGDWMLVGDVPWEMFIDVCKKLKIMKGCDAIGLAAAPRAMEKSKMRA

For test [3], the target named is T3, MED8-GFP from transgenic Arabidopsis (35S:MED8-GFP) (Arabidopsis thaliana) (UniProt Q4V3C1).
T3 sequence: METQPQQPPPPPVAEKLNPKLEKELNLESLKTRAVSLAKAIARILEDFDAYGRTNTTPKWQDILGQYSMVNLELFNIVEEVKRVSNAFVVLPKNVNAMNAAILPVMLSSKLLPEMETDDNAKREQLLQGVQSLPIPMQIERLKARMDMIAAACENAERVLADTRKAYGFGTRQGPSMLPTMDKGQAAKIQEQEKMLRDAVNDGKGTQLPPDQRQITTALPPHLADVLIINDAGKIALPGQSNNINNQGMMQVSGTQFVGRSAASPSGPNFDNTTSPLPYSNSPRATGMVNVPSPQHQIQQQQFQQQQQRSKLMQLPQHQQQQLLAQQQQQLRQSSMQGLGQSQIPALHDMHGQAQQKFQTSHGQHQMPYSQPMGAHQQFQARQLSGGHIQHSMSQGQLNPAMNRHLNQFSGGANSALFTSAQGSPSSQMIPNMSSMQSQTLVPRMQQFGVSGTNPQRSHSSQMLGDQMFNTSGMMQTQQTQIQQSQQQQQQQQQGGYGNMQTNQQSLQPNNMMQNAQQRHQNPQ

These are yes or no findings as the source states them, for the method shown. In cells and extracts the contact can be indirect. Some entries that bind do so weakly or less than the wild type. Tags and fused reporters may be left off the sequences shown.

B1: FLAG-ARF6 (AUXIN RESPONSE FACTOR6), transiently expressed in N. benthamiana (protein, UniProt Q9ZTX8 1-935)
chain: MRLSSAGFNPQPHEVTGEKRVLNSELWHACAGPLVSLPPVGSRVVYFPQGHSEQVAASTNKEVDAHIPNYPSLHPQLICQLHNVTMHADVETDEVYAQMTLQPLNAQEQKDPYLPAELGVPSRQPTNYFCKTLTASDTSTHGGFSVPRRAAEKVFPPLDYSQQPPAQELMARDLHDNEWKFRHIFRGQPKRHLLTTGWSVFVSAKRLVAGDSVLFIWNDKNQLLLGIRRANRPQTVMPSSVLSSDSMHLGLLAAAAHAAATNSRFTIFYNPRASPSEFVIPLAKYVKAVYHTRVSVGMRFRMLFETEESSVRRYMGTITGICDLDPTRWANSHWRSVKVGWDESTAGERQPRVSLWEIEPLTTFPMYPSPFPLRLKRPWPPGLPSFHGLKEDDMGMSMSSPLMWDRGLQSLNFQGMGVNPWMQPRLDTSGLLGMQNDVYQAMAAAALQDMRGIDPAKAAASLLQFQNSPGFSMQSPSLVQPQMLQQQLSQQQQQLSQQQQQQQQLSQQQQQQLSQQQQQQLSQQQQQQLSQQQQQQAYLGVPETHQPQSQAQSQSNNHLSQQQQQVVDNHNPSASSAAVVSAMSQFGSASQPNTSPLQSMTSLCHQQSFSDTNGGNNPISPLHTLLSNFSQDESSQLLHLTRTNSAMTSSGWPSKRPAVDSSFQHSGAGNNNTQSVLEQLGQSHTSNVPPNAVSLPPFPGGRECSIEQEGSASDPHSHLLFGVNIDSSSLLMPNGMSNLRSIGIEGGDSTTLPFTSSNFNNDFSGNLAMTTPSSCIDESGFLQSSENLGSENPQSNTFVKVYKSGSFGRSLDISKFSSYHELRSELARMFGLEGQLEDPVRSGWQLVFVDRENDVLLLGDDPWPEFVSSVWCIKILSPQEVQQMGKRGLELLNSAPSSNNVDKLPSNGNCDDFGNRSDPRNLGNGIASVGGSFNY
Consider B1, for which the binding entry in test [1] and in test [2] was “binds” each time.

B2: FLAG-ARF6 from transgenic Arabidopsis (P_UBQ10:FLAG-ARF6) (protein, UniProt Q9ZTX8 1-935)
chain: MRLSSAGFNPQPHEVTGEKRVLNSELWHACAGPLVSLPPVGSRVVYFPQGHSEQVAASTNKEVDAHIPNYPSLHPQLICQLHNVTMHADVETDEVYAQMTLQPLNAQEQKDPYLPAELGVPSRQPTNYFCKTLTASDTSTHGGFSVPRRAAEKVFPPLDYSQQPPAQELMARDLHDNEWKFRHIFRGQPKRHLLTTGWSVFVSAKRLVAGDSVLFIWNDKNQLLLGIRRANRPQTVMPSSVLSSDSMHLGLLAAAAHAAATNSRFTIFYNPRASPSEFVIPLAKYVKAVYHTRVSVGMRFRMLFETEESSVRRYMGTITGICDLDPTRWANSHWRSVKVGWDESTAGERQPRVSLWEIEPLTTFPMYPSPFPLRLKRPWPPGLPSFHGLKEDDMGMSMSSPLMWDRGLQSLNFQGMGVNPWMQPRLDTSGLLGMQNDVYQAMAAAALQDMRGIDPAKAAASLLQFQNSPGFSMQSPSLVQPQMLQQQLSQQQQQLSQQQQQQQQLSQQQQQQLSQQQQQQLSQQQQQQLSQQQQQQAYLGVPETHQPQSQAQSQSNNHLSQQQQQVVDNHNPSASSAAVVSAMSQFGSASQPNTSPLQSMTSLCHQQSFSDTNGGNNPISPLHTLLSNFSQDESSQLLHLTRTNSAMTSSGWPSKRPAVDSSFQHSGAGNNNTQSVLEQLGQSHTSNVPPNAVSLPPFPGGRECSIEQEGSASDPHSHLLFGVNIDSSSLLMPNGMSNLRSIGIEGGDSTTLPFTSSNFNNDFSGNLAMTTPSSCIDESGFLQSSENLGSENPQSNTFVKVYKSGSFGRSLDISKFSSYHELRSELARMFGLEGQLEDPVRSGWQLVFVDRENDVLLLGDDPWPEFVSSVWCIKILSPQEVQQMGKRGLELLNSAPSSNNVDKLPSNGNCDDFGNRSDPRNLGNGIASVGGSFNY
Take B2: the binding entry in test [3] is given as “binds”.

These data come from article doi:10.1101/2024.06.26.599170.
